Values from PubChem BioAssay AID743454 (Peter MacCallum Cancer Centre, 2014).

- Assay: 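Genes whose loss kills vorinostat-resistant colon cancer cells under vorinostat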 (primary screen)
- System: human HCT116-VR colon cancer cells, selected for vorinostat resistance
- Knock-down reagent: siRNA pool against human genes, 40 nM siRNA pool
- Timing: vorinostat for 24 h, read-out about 72 h after transfection
- Treatment: vorinostat at 2.5 µM final
- Detection: 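Cell viability by CellTiter-Fluor and caspase 3/7 activity by luminescence, each scaled to mock wells per plate, duplicates averaged, then robust z-scored over all plates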
- Scale: viability robust z-score: higher = more viable cells than screen typical; caspase robust z-score: higher = more caspase 3/7 activity than screen typical
- Hit rule: 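Hits are knock-downs in viability class RV1/RV2 or caspase class CA1/CA2, excluding ones that killed cells in the no-drug cell-count arm; hits then retested with single siRNAs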
The deposit covers about 18,000 reagents; below is a random part of them. 450 of them (2.5%) count as active. 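Single biological run; no consistent viability z cut-off exists, so the class columns, not z-scores, define the calls.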 Entries without a mark were called inactive.

target	viability hit class	caspase hit class	viability robust z-score	caspase robust z-score
AKR1C6P	no change	no change	0.57	1.8
SPRN	no change	no change	0.26	0.12
CCDC112	no change	no change	1	3.11
MTRF1L	no change	no change	1.52	-0.52
NFU1	no change	no change	0.84	0.16
H2AX	no change	no change	-1.99	4.47
KCNRG	no change	no change	-0.2	1.22
TM6SF2	no change	no change	-0.27	-0.75
H3C10	no change	no change	-1.06	-1.03
S100P	no change	no change	0.45	2
SMC1B	no change	no change	0.02	-1.12
MBD1	no change	no change	-0.4	-0.36
PAGE1	no change	no change	1.78	0.3
PNLIPRP1	no change	no change	0.32	-0.13
PDGFRA	no change	no change	-0.04	-0.76
CORO7	no change	no change	-1.28	1.65
ROS1	no change	no change	-0.03	-0.22
MKX	no change	no change	1.19	0.98
WDR13	no change	no change	-0.4	0.66
IRGQ	no change	no change	0.72	-0.68
HIPK1	no change	no change	1.32	0.22
SKIC3	no change	no change	-0.52	2.15
PABPC3	no change	no change	-0.44	0.59
SPATA25	no change	no change	0.62	-0.46
GPS1	no change	no change	-1.23	1.86
PHF8	no change	no change	-0.52	-1.31
RHOA	no change	no change	-1.34	0.44
LINC01465	no change	no change	0.22	2.9
CFHR4	no change	no change	0.32	0.38
ZNF707	no change	no change	0.39	-0.92
OGFRL1	no change	no change	0.02	1.91
AP5S1	RV2 (reduced viability) (active)	no change	-2.96	0.26
URB2	no change	no change	-0.64	2.93
H2AC12	no change	no change	0.74	-1.21
LRRC56	no change	no change	-0.06	-0.88
WFDC13	no change	no change	-1.21	4.54
ZCCHC12	no change	no change	0.4	-0.26
CHAC2	no change	no change	-0.31	0.13
CYB5D1	no change	no change	0.34	-0.1
